Reference: paper PMC6868398
Like-named read-outs stand apart in the source and are kept apart here. No constants are given. Whether binding was seen depends on the method and setting. Binding seen in cells or lysates may run through a third protein. Here binding means that the protein was enriched with, or labelled near, the bait; the list need not be complete. For some of these results: Where a sequence is shown, tags or fusion partners need not be part of it.

Protein sequences, listed by entry. Tags and fused reporters are not part of them. Lines headed by an entry give the natural chain unless they say otherwise; changes in a name come on top.
UniProt Q17963: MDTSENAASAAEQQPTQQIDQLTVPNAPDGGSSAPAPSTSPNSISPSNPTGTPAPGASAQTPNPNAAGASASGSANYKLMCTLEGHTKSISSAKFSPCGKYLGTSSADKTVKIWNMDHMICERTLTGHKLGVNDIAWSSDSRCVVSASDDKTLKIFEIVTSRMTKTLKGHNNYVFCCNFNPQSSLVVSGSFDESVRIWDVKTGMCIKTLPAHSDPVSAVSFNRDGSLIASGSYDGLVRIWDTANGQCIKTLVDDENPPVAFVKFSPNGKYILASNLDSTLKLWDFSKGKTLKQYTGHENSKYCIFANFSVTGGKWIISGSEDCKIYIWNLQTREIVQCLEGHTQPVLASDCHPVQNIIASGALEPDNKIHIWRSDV
UniProt Q18221: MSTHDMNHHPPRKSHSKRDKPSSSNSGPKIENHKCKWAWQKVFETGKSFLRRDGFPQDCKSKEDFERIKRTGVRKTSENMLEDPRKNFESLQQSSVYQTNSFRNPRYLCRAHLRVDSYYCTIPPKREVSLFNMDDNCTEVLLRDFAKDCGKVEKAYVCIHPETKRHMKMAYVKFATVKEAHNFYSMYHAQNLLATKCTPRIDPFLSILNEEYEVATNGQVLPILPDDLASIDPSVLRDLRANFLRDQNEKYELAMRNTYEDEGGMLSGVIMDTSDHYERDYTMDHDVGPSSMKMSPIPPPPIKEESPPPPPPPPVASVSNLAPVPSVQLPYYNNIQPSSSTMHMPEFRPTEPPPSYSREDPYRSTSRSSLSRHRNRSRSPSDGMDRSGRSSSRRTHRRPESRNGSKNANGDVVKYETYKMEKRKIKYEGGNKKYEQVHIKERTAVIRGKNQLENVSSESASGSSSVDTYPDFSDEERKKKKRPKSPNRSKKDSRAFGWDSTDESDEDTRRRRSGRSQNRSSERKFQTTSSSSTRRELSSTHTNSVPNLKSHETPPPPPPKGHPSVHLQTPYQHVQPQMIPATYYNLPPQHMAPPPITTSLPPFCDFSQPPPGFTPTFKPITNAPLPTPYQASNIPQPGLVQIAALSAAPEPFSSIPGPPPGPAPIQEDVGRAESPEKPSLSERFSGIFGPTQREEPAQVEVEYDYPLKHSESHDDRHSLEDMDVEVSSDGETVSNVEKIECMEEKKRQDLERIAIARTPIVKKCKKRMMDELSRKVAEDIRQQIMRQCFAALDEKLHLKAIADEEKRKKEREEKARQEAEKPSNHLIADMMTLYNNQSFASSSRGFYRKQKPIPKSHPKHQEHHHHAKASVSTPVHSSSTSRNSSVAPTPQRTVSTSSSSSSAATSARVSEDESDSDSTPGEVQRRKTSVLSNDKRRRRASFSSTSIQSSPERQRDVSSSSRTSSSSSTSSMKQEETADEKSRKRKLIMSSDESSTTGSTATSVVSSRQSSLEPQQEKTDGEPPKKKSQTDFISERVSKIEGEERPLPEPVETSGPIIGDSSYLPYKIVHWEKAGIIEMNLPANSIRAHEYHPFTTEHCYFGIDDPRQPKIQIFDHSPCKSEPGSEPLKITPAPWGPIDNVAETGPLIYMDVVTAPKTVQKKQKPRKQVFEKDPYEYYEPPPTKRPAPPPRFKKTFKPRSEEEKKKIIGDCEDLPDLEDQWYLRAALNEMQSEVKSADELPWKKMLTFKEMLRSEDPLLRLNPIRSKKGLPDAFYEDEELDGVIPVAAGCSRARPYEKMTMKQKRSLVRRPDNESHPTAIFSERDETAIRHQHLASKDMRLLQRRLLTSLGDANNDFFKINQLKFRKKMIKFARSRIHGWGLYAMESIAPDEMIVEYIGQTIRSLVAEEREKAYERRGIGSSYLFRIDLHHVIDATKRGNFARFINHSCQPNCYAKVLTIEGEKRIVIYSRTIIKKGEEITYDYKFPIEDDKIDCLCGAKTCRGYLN
UniProt A5JYW9: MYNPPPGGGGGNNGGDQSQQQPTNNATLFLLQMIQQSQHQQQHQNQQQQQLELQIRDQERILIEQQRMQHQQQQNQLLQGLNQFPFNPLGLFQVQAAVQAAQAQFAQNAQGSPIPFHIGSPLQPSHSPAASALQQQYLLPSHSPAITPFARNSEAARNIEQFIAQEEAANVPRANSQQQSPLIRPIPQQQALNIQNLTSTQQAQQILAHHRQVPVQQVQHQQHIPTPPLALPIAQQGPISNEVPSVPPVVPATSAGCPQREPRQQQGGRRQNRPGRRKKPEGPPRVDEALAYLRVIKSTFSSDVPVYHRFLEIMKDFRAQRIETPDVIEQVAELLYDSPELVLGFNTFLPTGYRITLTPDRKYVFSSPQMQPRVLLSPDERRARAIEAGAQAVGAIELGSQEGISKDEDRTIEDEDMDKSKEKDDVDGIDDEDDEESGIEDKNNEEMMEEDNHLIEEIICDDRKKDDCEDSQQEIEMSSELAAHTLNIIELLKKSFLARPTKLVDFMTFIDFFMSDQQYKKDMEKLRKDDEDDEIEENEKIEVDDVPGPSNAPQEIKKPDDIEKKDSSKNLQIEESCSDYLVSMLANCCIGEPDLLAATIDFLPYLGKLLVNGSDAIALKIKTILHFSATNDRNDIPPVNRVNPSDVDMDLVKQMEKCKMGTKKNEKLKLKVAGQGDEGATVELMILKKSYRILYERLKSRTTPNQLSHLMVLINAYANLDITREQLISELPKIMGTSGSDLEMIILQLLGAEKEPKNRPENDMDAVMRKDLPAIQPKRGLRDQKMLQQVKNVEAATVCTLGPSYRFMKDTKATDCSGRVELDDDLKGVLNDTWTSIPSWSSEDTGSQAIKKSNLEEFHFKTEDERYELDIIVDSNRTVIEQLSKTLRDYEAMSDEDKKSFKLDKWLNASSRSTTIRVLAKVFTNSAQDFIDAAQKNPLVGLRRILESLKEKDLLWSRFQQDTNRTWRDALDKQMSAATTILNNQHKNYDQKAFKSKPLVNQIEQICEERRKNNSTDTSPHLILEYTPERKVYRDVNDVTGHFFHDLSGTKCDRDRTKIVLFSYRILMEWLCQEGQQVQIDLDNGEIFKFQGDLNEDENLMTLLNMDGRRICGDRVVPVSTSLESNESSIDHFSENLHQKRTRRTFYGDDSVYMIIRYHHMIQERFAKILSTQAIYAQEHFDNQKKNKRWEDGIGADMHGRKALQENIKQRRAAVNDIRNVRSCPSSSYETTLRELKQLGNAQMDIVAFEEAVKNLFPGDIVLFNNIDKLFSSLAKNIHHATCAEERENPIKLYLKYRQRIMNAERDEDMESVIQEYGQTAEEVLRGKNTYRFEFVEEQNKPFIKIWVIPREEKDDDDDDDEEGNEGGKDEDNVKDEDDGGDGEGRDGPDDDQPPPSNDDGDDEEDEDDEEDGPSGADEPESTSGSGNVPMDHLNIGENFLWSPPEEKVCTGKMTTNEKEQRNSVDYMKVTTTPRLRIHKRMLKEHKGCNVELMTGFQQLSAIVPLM
UniProt Q18605: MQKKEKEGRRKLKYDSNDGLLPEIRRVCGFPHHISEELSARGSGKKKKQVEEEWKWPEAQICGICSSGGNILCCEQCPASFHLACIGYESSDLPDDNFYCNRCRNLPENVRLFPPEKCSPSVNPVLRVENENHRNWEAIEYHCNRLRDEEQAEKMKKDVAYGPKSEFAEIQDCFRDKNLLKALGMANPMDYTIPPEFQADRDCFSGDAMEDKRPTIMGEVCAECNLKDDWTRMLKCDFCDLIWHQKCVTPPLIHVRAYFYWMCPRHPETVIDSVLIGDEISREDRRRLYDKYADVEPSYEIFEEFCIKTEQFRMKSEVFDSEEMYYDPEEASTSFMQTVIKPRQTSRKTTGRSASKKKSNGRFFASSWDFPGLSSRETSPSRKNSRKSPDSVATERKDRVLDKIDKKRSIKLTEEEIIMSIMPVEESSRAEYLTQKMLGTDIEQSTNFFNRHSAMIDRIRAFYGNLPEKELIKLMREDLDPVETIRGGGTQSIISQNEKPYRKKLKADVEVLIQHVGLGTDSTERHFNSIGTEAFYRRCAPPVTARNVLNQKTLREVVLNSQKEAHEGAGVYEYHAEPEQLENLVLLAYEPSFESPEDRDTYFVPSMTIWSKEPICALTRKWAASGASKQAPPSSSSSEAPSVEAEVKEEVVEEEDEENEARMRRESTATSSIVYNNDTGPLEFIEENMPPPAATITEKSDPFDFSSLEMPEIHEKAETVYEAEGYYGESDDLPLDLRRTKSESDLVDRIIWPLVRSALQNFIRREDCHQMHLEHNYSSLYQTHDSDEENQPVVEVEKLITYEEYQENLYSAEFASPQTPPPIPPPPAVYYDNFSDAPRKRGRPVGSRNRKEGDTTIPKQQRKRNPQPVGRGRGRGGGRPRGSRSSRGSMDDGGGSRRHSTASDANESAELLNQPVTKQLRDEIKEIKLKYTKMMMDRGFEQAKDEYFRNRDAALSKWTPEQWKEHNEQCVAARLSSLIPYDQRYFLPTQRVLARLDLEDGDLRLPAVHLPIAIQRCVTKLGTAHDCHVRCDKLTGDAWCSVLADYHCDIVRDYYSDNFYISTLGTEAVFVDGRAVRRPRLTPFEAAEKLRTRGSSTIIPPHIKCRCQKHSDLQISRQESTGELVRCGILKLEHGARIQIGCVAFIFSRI
UniProt O17695: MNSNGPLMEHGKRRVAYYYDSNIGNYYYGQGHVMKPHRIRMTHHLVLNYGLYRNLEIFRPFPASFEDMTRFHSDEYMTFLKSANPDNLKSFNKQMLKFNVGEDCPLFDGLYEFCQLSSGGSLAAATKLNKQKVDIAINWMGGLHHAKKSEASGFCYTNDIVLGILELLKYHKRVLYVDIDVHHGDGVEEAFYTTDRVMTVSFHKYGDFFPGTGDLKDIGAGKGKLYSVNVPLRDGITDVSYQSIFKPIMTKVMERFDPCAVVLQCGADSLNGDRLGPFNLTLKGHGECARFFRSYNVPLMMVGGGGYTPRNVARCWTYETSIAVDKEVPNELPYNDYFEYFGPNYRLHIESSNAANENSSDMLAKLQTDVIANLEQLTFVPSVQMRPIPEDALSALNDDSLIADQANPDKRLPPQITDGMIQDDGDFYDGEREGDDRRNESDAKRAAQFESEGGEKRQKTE

Assays:
[1] = target: T1, CFP-1::GFP (C. elegans) (UniProt Q9XUE7); assay: affinity purification with mass spectrometry; CFP-1::GFP precipitated with GFP-TRAP MA beads from about 70 mg late stage embryo extract (strain PFR572); IP buffer with 300 mM KCl, benzonase; nanoLC-MS/MS; wild-type (N2) embryos as negative control
T1 sequence: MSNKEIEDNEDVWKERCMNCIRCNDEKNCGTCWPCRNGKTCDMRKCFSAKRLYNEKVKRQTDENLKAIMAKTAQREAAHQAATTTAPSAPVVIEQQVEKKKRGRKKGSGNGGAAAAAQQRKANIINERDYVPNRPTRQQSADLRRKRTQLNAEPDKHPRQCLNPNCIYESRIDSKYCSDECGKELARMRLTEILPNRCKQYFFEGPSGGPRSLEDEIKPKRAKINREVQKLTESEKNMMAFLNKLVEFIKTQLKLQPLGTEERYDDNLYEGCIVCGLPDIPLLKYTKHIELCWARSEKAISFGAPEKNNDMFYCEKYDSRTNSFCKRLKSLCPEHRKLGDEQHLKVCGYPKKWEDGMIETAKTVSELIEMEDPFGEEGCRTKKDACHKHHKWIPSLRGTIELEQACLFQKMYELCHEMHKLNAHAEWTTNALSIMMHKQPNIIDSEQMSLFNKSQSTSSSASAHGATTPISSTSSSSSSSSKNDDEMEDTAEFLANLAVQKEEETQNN

[2] = target: HA::WDR-5.1 (C. elegans) (UniProt Q17963); assay: affinity purification with mass spectrometry; HA::WDR-5.1 precipitated with anti-HA affinity matrix from about 60 mg embryo extract (strain PFR506); IP buffer with 300 mM KCl, benzonase, HA peptide elution; nanoLC-MS/MS; wild-type (N2) embryos as negative control
[3] = target: HA::WDR-5.1 (C. elegans) (UniProt Q17963); assay: as above; remark: listed apart in the source

Molecule	binding [1]	binding [2]	binding [3]
SET-2 (from UniProt Q18221 1-1507)	binds	binds	
SIN-3 (from UniProt A5JYW9 1-1507)	binds	binds	
ATHP-1 (AT Hook plus PHD finger transcription factor) (from UniProt Q18605)	binds	binds	
HDA-1 (from UniProt O17695 1-461)	binds	binds	
MRG-1 (protein, UniProt A7DTF0 1-337) MSSKKNFEVGENVACIYKGKPYDAKITDIKTNSDGKELYCVHFKGWNNRYDEKIPVGEEKDRIFKGTASEYAEKHNAELPTTALKPKKKSLAAEAPRDDRDDTPGTSKGKKAKSVTIAPVMTADDMKVELPKPLRKILIDDYDLVCRYFINIVPHEYSVDQIIEDYIKTIPVSNEQMRTVDDLLIEYEEADIKITNLALICTARGLVDYFNVTLGSSYQLLYKFERPQYNDLVKKRAMEKGIDITNPTALQDSGFRPSQEYGIVHFLRMLAKLPDYLKLTQWNDHVINRIMIGVHDLIVFLNKNHGKYYRGSSDYQGASNDYYRRSLAADDGVGANQ	binds		binds
